Reference: paper PMC7819943, “Rice protein-binding microarrays: a tool to detect cis-acting elements near promoter regions in rice”
The other results are listed elsewhere or left out.

By UniProt entry, the sequences of proteins in these tests, tags left out.
UniProt Q0JBA9, entry or part of it: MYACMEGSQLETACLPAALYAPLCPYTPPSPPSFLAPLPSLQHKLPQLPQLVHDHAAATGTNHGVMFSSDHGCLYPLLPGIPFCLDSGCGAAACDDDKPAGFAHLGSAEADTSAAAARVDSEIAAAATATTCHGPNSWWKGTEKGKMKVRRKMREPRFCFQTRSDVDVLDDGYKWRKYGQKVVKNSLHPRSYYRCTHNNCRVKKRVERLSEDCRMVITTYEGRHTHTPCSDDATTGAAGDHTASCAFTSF

Each sequence was assayed against OsWRKY34 (Oryza sativa, UniProt Q0JBA9 1-250) (assay: protein-binding microarray (RPBM); PBS, 2% BSA, 51.3 ng/ul salmon testes DNA, 50 uM zinc acetate, 200 nM TF, 25 C, 1 h; high values mean tight binding). Conditions: protein: recombinant; tags: N-terminal polyhistidine and DsRed monomer fusion (pET32a); label: CyDye5-dUTP incorporated in the synthesized complementary strand; 3' TTTTT single-stranded linker to array surface; dsDNA, one strand shown.
Procedure, shortened: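 Per-feature fluorescence intensity (arbitrary units), read on an Axon 4000B scanner, is the binding signal. Transcription factors carrying an N-terminal polyhistidine tag and DsRed fusion were expressed in E. coli BL21-CodonPlus and purified on Ni–NTA. A custom Agilent array, made double-stranded by primer extension with Cy5-dUTP and blocked with 2% BSA, was incubated with 200 nM protein in PBS, 2% BSA, salmon testes DNA and 50 µM zinc acetate at 25 °C for 1 h and then washed.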

Row | Sequence | binding signal
1 | CCTAAAAAGATGGCCTAATTACGAATTGGGAGGGGTAAAACGGAGTCACCTAGTGCAG | 9120 fluorescence intensity (a.u.)
2 | ATCCAATTCCAAAGGCCCATAGCTCATATGCCCTGGCTCGCGGAGTCACCTAGTGCAG | 9890 fluorescence intensity (a.u.)
3 | CTCGTACTGGCACCCACTCTCTCTCCCTGCCTCTCTGCCACGGAGTCACCTAGTGCAG | 8810 fluorescence intensity (a.u.)
4 | AGAACGAACAGTCAAACATATGCTAAAAAGTCAACGGTGTCGGAGTCACCTAGTGCAG | 10200 fluorescence intensity (a.u.)
5 | TGATAGTTGGGTTTACTTGAAGATTCGTGTGTGGGAGTTTCGGAGTCACCTAGTGCAG | 9650 fluorescence intensity (a.u.)
6 | AGTTTGGGTGTTGGGCTCTCATTCTTATCTCGTTATCAATCGGAGTCACCTAGTGCAG | 15900 fluorescence intensity (a.u.)
7 | AATTATTTCAGTGTACTTTTGATAAATTTAAGCCTTGTTTCGGAGTCACCTAGTGCAG | 10100 fluorescence intensity (a.u.)
8 | AACGCCACCTCAATATCTATATTAAGTCTCGTCACCGTCTCGGAGTCACCTAGTGCAG | 8260 fluorescence intensity (a.u.)
9 | GGAGGAGGGGAGGAGGGGAGGGAGATCGATCTGAGAGGATCGGAGTCACCTAGTGCAG | 12800 fluorescence intensity (a.u.)
10 | TTGCCAGTTTGCCACCTCGCGTCATGGATCGCCCTTTTGCCGGAGTCACCTAGTGCAG | 11300 fluorescence intensity (a.u.)
11 | TGTTGCTTAACGATTTGCCACTAGGCCCACATGTCATAGACGGAGTCACCTAGTGCAG | 8660 fluorescence intensity (a.u.)
12 | GCCCAATCAAACAATCATTCATATGTTTTTCCTGTGTTTTCGGAGTCACCTAGTGCAG | 10600 fluorescence intensity (a.u.)
13 | TATTCTTGTCCTTAAGGTTTTGCTGGGTATTCTTTTTTAGCGGAGTCACCTAGTGCAG | 12800 fluorescence intensity (a.u.)
14 | ACCTCATCCCTACCGTCCATTCCCCGATCGGACGGCCACCCGGAGTCACCTAGTGCAG | 10200 fluorescence intensity (a.u.)
15 | CATCGCCGCCGCCGCCGCCCCATTCTCCGGCCATCCTCCGCGGAGTCACCTAGTGCAG | 14900 fluorescence intensity (a.u.)
16 | CCTCCGATCCCCATGCCTCCTCCGCCTCCGCCTCCCTCCCCGGAGTCACCTAGTGCAG | 8210 fluorescence intensity (a.u.)
17 | ACCTACCGCGTACCGCGTCCCCTTATCTGCTTTGGACGCTCGGAGTCACCTAGTGCAG | 8960 fluorescence intensity (a.u.)
18 | TGGATGGGAGAGGACTAGTGGGCTGCACAGAATTTCGGTTCGGAGTCACCTAGTGCAG | 8240 fluorescence intensity (a.u.)
19 | CTTACCTAGATTCAAATACTCAATACATGCGTATAATTTACGGAGTCACCTAGTGCAG | 8590 fluorescence intensity (a.u.)
20 | GTACTAGAGGTGATGCATTGTATAGGTTGACTCTTAGAGCCGGAGTCACCTAGTGCAG | 8180 fluorescence intensity (a.u.)
21 | GACAGATGATCTGCTTCTTCGACTCGATTGCTCACCTAAACGGAGTCACCTAGTGCAG | 9710 fluorescence intensity (a.u.)
22 | ACTGCTAGCCTAAAATCCAATTTCTAATCCTTCGTTTTCCCGGAGTCACCTAGTGCAG | 8390 fluorescence intensity (a.u.)
23 | GGTGGTTGGCGCGCGTTTTCTTGTGTGGTTTTTTGTGTCGCGGAGTCACCTAGTGCAG | 14200 fluorescence intensity (a.u.)
24 | AACAAGACATTTCTCTCTCTCTGGCAAGTTTGGAATTGGACGGAGTCACCTAGTGCAG | 9270 fluorescence intensity (a.u.)
25 | AATTTCCACTTTGCCAAACAAGACCTTTTAAGTGGGCCCGCGGAGTCACCTAGTGCAG | 9110 fluorescence intensity (a.u.)
26 | CGACCTCACCCACCGTTTCTCGATCGTTTCTCTCCCTCCTCGGAGTCACCTAGTGCAG | 10300 fluorescence intensity (a.u.)
27 | TTTTCTTTGGCTCTTCAGAGTTTTGTCCATCTCTATCTTCCGGAGTCACCTAGTGCAG | 12600 fluorescence intensity (a.u.)

Row | Sequence | binding signal
28 | GAGAAATTTGCGCATGGAAGCACCGGAATTCCACGTTATCCGGAGTCACCTAGTGCAG | 9020 fluorescence intensity (a.u.)
29 | GTTCGTTTCGTTTCGTTTCCATCAGACGCGCGGCCGCAGCCGGAGTCACCTAGTGCAG | 8230 fluorescence intensity (a.u.)
30 | ATTTCAGTTAGTACTATTTCTGCAAGCCATCCTACTCTATCGGAGTCACCTAGTGCAG | 10100 fluorescence intensity (a.u.)
31 | TCCCTTGTGTCACCTATGACTTTCATCTCAATACTCTCTCCGGAGTCACCTAGTGCAG | 12300 fluorescence intensity (a.u.)
32 | CTTATCCTCTCGTCGCCGCGCGCCAACCCGCCACAAAACCCGGAGTCACCTAGTGCAG | 8760 fluorescence intensity (a.u.)
33 | TAACCTTTGACAATGTTGGTACTTGGTACAGTTTGTATTCCGGAGTCACCTAGTGCAG | 8870 fluorescence intensity (a.u.)
34 | AAGTCGATTTGGTACTATACTATAGGAGGGAGGGGTCTAACGGAGTCACCTAGTGCAG | 12700 fluorescence intensity (a.u.)
35 | ACAAACGTCCACAGACTTCCACAACACGTACACACTCATCCGGAGTCACCTAGTGCAG | 11200 fluorescence intensity (a.u.)
36 | ATCCACCATACACCTTACCAGTCACCAACTAATCCACCAACGGAGTCACCTAGTGCAG | 8660 fluorescence intensity (a.u.)
37 | CCTCATTTGCTTCTTCTTCTTCTTCCTCCTCTTTGTTTCACGGAGTCACCTAGTGCAG | 9120 fluorescence intensity (a.u.)
38 | ACTATTAATATCTGGTCTCACGTATCATAAACACATTACACGGAGTCACCTAGTGCAG | 8780 fluorescence intensity (a.u.)
39 | GCTGACATAATTGCTTGTTGGGATTCTTGGGAGGAAATGGCGGAGTCACCTAGTGCAG | 8330 fluorescence intensity (a.u.)
40 | GACGGATGCCCTGGAGGTTTGGGTTGAGATGGGAGTAGAGCGGAGTCACCTAGTGCAG | 8310 fluorescence intensity (a.u.)
41 | TATGTGGCGTGTTCTTTTCCATCACTTATCTTCATTTCTGCGGAGTCACCTAGTGCAG | 12200 fluorescence intensity (a.u.)
42 | ATTTCCCTTTTCTTTTTTATTTTTTATGCATTAGCTTTTACGGAGTCACCTAGTGCAG | 9600 fluorescence intensity (a.u.)
43 | GATATTTTTTCATTCTCATATCTTTGTTACCACACATTTTCGGAGTCACCTAGTGCAG | 11900 fluorescence intensity (a.u.)
44 | CATCTTTGATCAATTCAGTTACTATTTACTACCTATGATCCGGAGTCACCTAGTGCAG | 9870 fluorescence intensity (a.u.)
45 | ACTTCTGCCAAGGAGCATACTCTCACGGTTGTTTGCGGGACGGAGTCACCTAGTGCAG | 8120 fluorescence intensity (a.u.)
46 | GCTGATCTAAATTTATTATTGCTATAGAGTTGTGTTTTTCCGGAGTCACCTAGTGCAG | 8020 fluorescence intensity (a.u.)
47 | CCCATGCACACGCTTCCTATCAAGATGAAAAGAGGCCTACCGGAGTCACCTAGTGCAG | 8240 fluorescence intensity (a.u.)
48 | TCCGTCATTAATAAATGTTTACTGTAGCACCACATTATCACGGAGTCACCTAGTGCAG | 8350 fluorescence intensity (a.u.)
49 | AAGGCTGCGTTCGTTCGTAAGGTTTGGTTGGGATTTTAAGCGGAGTCACCTAGTGCAG | 9900 fluorescence intensity (a.u.)
50 | GCCCGCTGAAACATGCATCTTCCCTACCTAGCTCGTCTTCCGGAGTCACCTAGTGCAG | 8080 fluorescence intensity (a.u.)
51 | AAGGAAGATGACCAAGGGGTTATTATTGGGGATGGATTTGCGGAGTCACCTAGTGCAG | 8830 fluorescence intensity (a.u.)
52 | CTCCTTTCTCAGTAACTGCACCCACCTCCACACCTACACGCGGAGTCACCTAGTGCAG | 9790 fluorescence intensity (a.u.)
53 | TTATCTCTTTTTTTCTCATCGTGTAGGTCGAATTTGAACTCGGAGTCACCTAGTGCAG | 8250 fluorescence intensity (a.u.)
54 | CGTGTCTCTGTTTCGTTTTCCTTTCTCGCACCGCGTTTGCCGGAGTCACCTAGTGCAG | 8790 fluorescence intensity (a.u.)

An excerpt of these results, as a markdown table:

| Row | Sequence | binding signal |
| --- | --- | --- |
| 44 | CATCTTTGATCAATTCAGTTACTATTTACTACCTATGATCCGGAGTCACCTAGTGCAG | 9870 fluorescence intensity (a.u.) |
| 45 | ACTTCTGCCAAGGAGCATACTCTCACGGTTGTTTGCGGGACGGAGTCACCTAGTGCAG | 8120 fluorescence intensity (a.u.) |
| 46 | GCTGATCTAAATTTATTATTGCTATAGAGTTGTGTTTTTCCGGAGTCACCTAGTGCAG | 8020 fluorescence intensity (a.u.) |
| 47 | CCCATGCACACGCTTCCTATCAAGATGAAAAGAGGCCTACCGGAGTCACCTAGTGCAG | 8240 fluorescence intensity (a.u.) |
| 48 | TCCGTCATTAATAAATGTTTACTGTAGCACCACATTATCACGGAGTCACCTAGTGCAG | 8350 fluorescence intensity (a.u.) |
| 49 | AAGGCTGCGTTCGTTCGTAAGGTTTGGTTGGGATTTTAAGCGGAGTCACCTAGTGCAG | 9900 fluorescence intensity (a.u.) |
| 50 | GCCCGCTGAAACATGCATCTTCCCTACCTAGCTCGTCTTCCGGAGTCACCTAGTGCAG | 8080 fluorescence intensity (a.u.) |
| 51 | AAGGAAGATGACCAAGGGGTTATTATTGGGGATGGATTTGCGGAGTCACCTAGTGCAG | 8830 fluorescence intensity (a.u.) |
| 52 | CTCCTTTCTCAGTAACTGCACCCACCTCCACACCTACACGCGGAGTCACCTAGTGCAG | 9790 fluorescence intensity (a.u.) |
| 53 | TTATCTCTTTTTTTCTCATCGTGTAGGTCGAATTTGAACTCGGAGTCACCTAGTGCAG | 8250 fluorescence intensity (a.u.) |
| 54 | CGTGTCTCTGTTTCGTTTTCCTTTCTCGCACCGCGTTTGCCGGAGTCACCTAGTGCAG | 8790 fluorescence intensity (a.u.) |
